Test results: PubChem BioAssay AID504467 (National Center for Advancing Translational Sciences (NCATS), 2011)
About 7,700 (2.3%) of roughly 330,000 compounds were called active. Inconclusive means that the source gave no clear call. Such entries were picked first, then a sample of the others. Calls follow the shape of the dose curve; as a rule, active = well fitted inhibition curve with a large enough effect; inconclusive = small, poorly fitted or top-dose-only effect, or effect the other way; inactive = flat fitted curve, though single readings scatter. Potencies of inconclusive entries are doubtful fits and often do not repeat.
Potency is read from the fitted curve at half-maximal effect.

Test: qHTS screen for small molecules that inhibit ELG1-dependent DNA repair in human embryonic kidney (HEK293T) cells expressing luciferase-tagged ELG1; also: nearly all actives have a fitted effect of over 55% in size
Conditions: HEK293T ELG1-luciferase reporter, luminescence, 16 h, DNA damage induced by 5-fluorouridine; series mostly up to 46.1 µM
Outline: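 Luminescence from the luciferase reporter, measured 30 min after ONE-Glo reagent at room temperature, was the read-out. Beforehand, 2,000 cells per well were exposed for 16 hr at 37 °C to 5-fluorouridine together with compound or vehicle.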
For `COc1ccc(-c2nnc(SCc3ccccc3)n2N)cc1`, the Potency was inconclusive: 35.5 µM [activator, single point].
With `Cc1ccc(C(=O)NC(=S)Nc2cccc(-c3nc4ccccc4s3)c2)cc1` the Potency was inconclusive: 18.4 µM [activator, partial curve].
In the case of `CC(=O)N1CCN(S(=O)(=O)c2cccc(C(=O)Nc3nccs3)c2)CC1`, the Potency is reported as “inactive”.
For `COc1ccc(CN2C(=NC(=O)C3CCCO3)SC3CS(=O)(=O)CC32)cc1` (configuration not stated), the Potency was “inactive”.
For `CN(C)c1cc[n+](CC(=O)c2cccs2)cc1`, the Potency was “inactive”.
For `COc1cc(/C=N/NC(=O)C2=NNC(=O)C2C)ccc1O` (configuration not stated), the Potency was “inactive”.
With `CCOC(=O)CCc1c(C)c2ccc(OC3CCCCC3=O)cc2oc1=O` (configuration not stated) the Potency was inconclusive: 32.6 µM [activator, partial curve, poor fit].
With `COc1ccccc1OCCNC(=O)c1ccc2c(c1)OCCO2` the Potency was inconclusive: 6.51 µM [activator, partial curve].
For `COc1ccc(Cl)cc1-c1nc(SCC(=O)N(C)C)n[nH]1`, the Potency was inconclusive: 20.6 µM [activator, single point].
For `COc1ccc(OCC(=O)NNc2nc3ccccc3s2)cc1`, the Potency was inconclusive: 18.3 µM [activator, single point].
In the case of `C#CC[N+](C)(C)CC#Cc1ccc(Cl)cc1`, the Potency is reported as “inactive”.
In the case of `CCn1c(SCc2nc(-c3ccc(Cl)cc3)no2)nnc1-c1ccco1`, the Potency is reported as “inactive”.
For `CC(=O)Oc1cc2c(C(C)=O)coc2c2ccccc12`, the Potency was inconclusive: 20.6 µM [activator, single point].
In the case of `CS(=O)(=O)N1CCN(c2ccccc2NC(=O)c2ccc([N+](=O)[O-])o2)CC1`, the Potency is reported as active: 23.1 µM.
For `O=C(NCc1cccc(C(F)(F)F)c1)C1CCCN(c2ncccn2)C1` (configuration not stated), the Potency was “inactive”.
With `COc1cccc(CN2CCc3ccc(NC(=O)CCc4ccc(C)cc4)cc3C2)c1O` the Potency was inconclusive: 13 µM [inhibitor, partial curve, poor fit].
With `CCOc1ccccc1NC(=O)CSc1n[nH]c(N)n1` the Potency was “inactive”.
In the case of `COc1cccc(OC)c1OCCCc1c(C)n[nH]c1C`, the Potency is reported as “inactive”.
For `O=C(NCCn1c(C(F)(F)F)nc2ccccc21)[C@H]1CCCN1c1nc(CN2CCCCC2)cs1`, the Potency was “inactive”.
In the case of `O=C(NCc1ccc(F)cc1)Nc1cccc([N+](=O)[O-])c1`, the Potency is reported as inconclusive: 18.3 µM [activator, single point].
With `COc1ccc(Nc2nnc(-c3ccncc3)s2)cc1Cl` the Potency was inconclusive: 18.3 µM [activator, partial curve].
With `O=C(CSc1nnc(CNC(=O)c2c(F)cccc2Cl)o1)NCc1ccccc1` the Potency was “inactive”.
For `Fc1ccc(/C=N/Nc2cc(N3CCOCC3)ncn2)cc1`, the Potency was inconclusive: 5.8 µM [activator, full curve].
In the case of `Oc1ccc(CN2CCN(c3ccccc3)CC2)c2cccnc12`, the Potency is reported as inconclusive: 7.31 µM [inhibitor, partial curve].
In the case of `COc1ccc(S(=O)(=O)N2CCOC2CNC(=O)C(=O)NCc2ccc(F)cc2)cc1` (configuration not stated), the Potency is reported as inconclusive: 29.1 µM [inhibitor, single point].
In the case of `Cc1ccc2c(NC(=S)NC(=O)c3ccccc3)cccc2n1`, the Potency is reported as inconclusive: 29.1 µM [inhibitor, single point].
In the case of `CCCCN(CC)C(=O)C1CCC(CNS(=O)(=O)c2cccc3nsnc23)CC1` (configuration not stated), the Potency is reported as inconclusive: 20.6 µM [inhibitor, single point].
For `CCOC(=O)c1oc2cccc(O)c2c1CN1CCOCC1`, the Potency was “inactive”.
In the case of `O=C(C1CC1)N1CCc2cc(Br)cc(S(=O)(=O)NCc3ccc4c(c3)OCO4)c21`, the Potency is reported as inconclusive: 13 µM [inhibitor, partial curve, poor fit].
With `Cc1cccc(N2CCN(C(=O)/C=C/c3cccs3)CC2C)c1` (configuration not stated) the Potency was inconclusive: 20.6 µM [inhibitor, partial curve].
With `O=C(CSc1nnc(-c2ccco2)n1Cc1ccccc1)NC(=O)NCc1ccco1` the Potency was inconclusive: 18.4 µM [inhibitor, single point].
With `O=S(=O)(Nc1ccc(O)c2ccccc12)c1cccs1` the Potency was active: 9.2 µM.
With `Cc1nc(Cl)c(C(=O)NC(=O)Nc2cccc(C(F)(F)F)c2)c(C)c1[N+](=O)[O-]` the Potency was inconclusive: 4.11 µM [inhibitor, single point].
For `O=C(Cc1cccs1)NCc1cccc(Br)c1`, the Potency was inconclusive: 18.3 µM [activator, partial curve].
For `CC(=O)Oc1ccc(C(=O)Nc2cc(C)on2)cc1`, the Potency was inconclusive: 31.6 µM [activator, single point].
With `COc1cccc(Oc2coc3cc(OC(=O)N4CCOCC4)ccc3c2=O)c1` the Potency was inconclusive: 16.4 µM [inhibitor, partial curve, poor fit].
In the case of `CCc1c(-c2ccccc2)nc2nc(C)c(C)nn12`, the Potency is reported as inconclusive: 20.6 µM [activator, single point].
With `O=C(/C=C/c1ccco1)NC1=NCCS1` the Potency was inconclusive: 8.2 µM [activator, partial curve].
For `COc1ccc(Cn2nnc3ccccc32)cc1`, the Potency was “inactive”.
With `Cc1ccc2c(c1)C(=O)CC(c1ccc3c(c1)OCCO3)O2` (configuration not stated) the Potency was inconclusive: 23.1 µM [activator, partial curve].
For `CCNC(=S)N1CCC(Cc2ccccc2)CC1`, the Potency was inconclusive: 5.17 µM [inhibitor, partial curve].
In the case of `Cc1cc(O)cc(O)c1C(=O)Cc1cscn1`, the Potency is reported as inconclusive: 10.3 µM [inhibitor, partial curve].
With `CN(C)c1ccc(-c2noc(-c3ccccc3O)n2)cc1` the Potency was inconclusive: 1.03 µM [activator, full curve, poor fit].
With `Cc1ccc(S(=O)(=O)NCc2ccccc2)cc1C(=O)N(C)CC(=O)Nc1c(Cl)cccc1Cl` the Potency was inconclusive: 4.61 µM [inhibitor, partial curve].
For `COC(=O)C1=C(C)N(Cc2ccc(C)cc2)C(=O)/C1=C\c1cc(OC)c(OC)c(OC)c1`, the Potency was inconclusive: 14.6 µM [inhibitor, partial curve].
For `CCn1c(O)c(N=N)c2ccccc21`, the Potency was inconclusive: 25.9 µM [activator, single point].
In the case of `Cc1cccc(NC(=O)CSc2nc(C)c(Cc3ccccc3)c(=O)[nH]2)c1C`, the Potency is reported as “inactive”.
In the case of `C=CCn1c(SCC(C)=O)nnc1-c1cc(-c2ccccc2)sc1N`, the Potency is reported as active: 25.9 µM.
For `COCc1ccc(CN2CCC(n3nccc3NC(=O)CCOc3ccccc3)CC2)o1`, the Potency was inconclusive: 13 µM [inhibitor, partial curve, poor fit].
With `O=C(O)c1ccc(N/N=C/c2ccc3nccnc3c2)cc1` the Potency was inconclusive: 0.0073 µM [activator, full curve, poor fit].
In the case of `CC(=O)c1c(C)[nH]c(C(=O)Nc2ccc(C)cn2)c1C`, the Potency is reported as inconclusive: 0.146 µM [activator, partial curve].
For `NC(N)=N/N=C/c1ccc(OCc2ccccc2)cc1`, the Potency was inconclusive: 25.9 µM [activator, single point].
In the case of `COc1ccc(-c2ccc(SCc3cccnc3)nn2)cc1OC`, the Potency is reported as inconclusive: 29.1 µM [inhibitor, partial curve, poor fit].
In the case of `COCCn1c(C)cc(C(=O)COc2ccc(N(C)S(=O)(=O)c3ccc(C)cc3)cc2)c1C`, the Potency is reported as inconclusive: 23.1 µM [inhibitor, partial curve].
For `O=C(NCC(=O)N(c1cccc(F)c1)C(C(=O)NC1CCCC1)c1ccncc1)c1cccs1` (configuration not stated), the Potency was “inactive”.
In the case of `CNC(=O)NC(=O)C(C)OC(=O)CCCSc1nc2ccccc2s1` (configuration not stated), the Potency is reported as “inactive”.
With `CCc1ccc(NC(=O)NCCCN2CCCC2=O)cc1` the Potency was inconclusive: 11.6 µM [activator, partial curve].
For `CCOc1cc(CN2CCN(c3cccc(C(F)(F)F)c3)CC2)ccc1OC`, the Potency was active: 25.9 µM.
For `CCN(CC)S(=O)(=O)c1ccc2c(c1)N(CC(=O)N1CCC(C(N)=O)CC1)C(=O)CO2`, the Potency was “inactive”.
For `CC(C)(C)C1CCc2c(C(=O)N/N=C/c3cccs3)csc2C1` (configuration not stated), the Potency was inconclusive: 16.4 µM [activator, partial curve].
With `CCN(CC)c1ccc(CN2CCC(C(=O)NCc3ccc(C)cc3)CC2)cc1` the Potency was inconclusive: 0.013 µM [activator, full curve, poor fit].
In the case of `CN(CC1CCCO1)S(=O)(=O)c1ccc(C(=O)Nc2ccc(F)cc2)cc1` (configuration not stated), the Potency is reported as active: 4.11 µM.
For `Fc1ccccc1CNC(=S)NC1CCCCC1`, the Potency was “inactive”.
For `Nc1ccccc1C(=O)N=Nc1[nH]c(N)c2ccccc12`, the Potency was inconclusive: 18.4 µM [activator, partial curve].
In the case of `CC(Oc1ccc(Br)cc1)C(=O)NCc1ccccn1` (configuration not stated), the Potency is reported as “inactive”.
For `N#Cc1ccccc1NC(=O)c1cccc(COc2ccc(Cl)cc2Cl)c1`, the Potency was inconclusive: 0.731 µM [activator, full curve].
For `CCC(C)c1ccc(S(=O)(=O)N2CCN(C(=O)COc3ccc4c(C)cc(=O)oc4c3)CC2)cc1` (configuration not stated), the Potency was active: 8.2 µM.
For `Cc1csc(NC(=O)c2ccc(COc3ccccc3)o2)n1`, the Potency was inconclusive: 4.61 µM [activator, single point].
For `Cc1cc(F)c(F)c(C(=O)N2CCN(C)CC2)c1Cl`, the Potency was inconclusive: 0.891 µM [inhibitor, single point].
With `COc1ccccc1N1CCN(c2nc3ccccc3nc2C(C#N)C(=O)OC(C)C)CC1` (configuration not stated) the Potency was inconclusive: 20.6 µM [inhibitor, single point].
With `Cc1cc(C)c2c3c(sc2n1)C(c1ccccc1)C(C#N)=C(N)O3` (configuration not stated) the Potency was inconclusive: 23.1 µM [activator, single point].
For `COc1ccc(Cc2nc(-c3ccc(Cl)cc3)no2)cc1`, the Potency was inconclusive: 18.4 µM [activator, partial curve].
